Reference: BindingDB's records for PubMed 11546835 (Mcgill University, 2001)

By UniProt entry, the sequences of proteins in these tests, tags left out. Where a name states a change or a piece, a line headed by the entry shows the natural chain unless it says otherwise.
UniProt P35377: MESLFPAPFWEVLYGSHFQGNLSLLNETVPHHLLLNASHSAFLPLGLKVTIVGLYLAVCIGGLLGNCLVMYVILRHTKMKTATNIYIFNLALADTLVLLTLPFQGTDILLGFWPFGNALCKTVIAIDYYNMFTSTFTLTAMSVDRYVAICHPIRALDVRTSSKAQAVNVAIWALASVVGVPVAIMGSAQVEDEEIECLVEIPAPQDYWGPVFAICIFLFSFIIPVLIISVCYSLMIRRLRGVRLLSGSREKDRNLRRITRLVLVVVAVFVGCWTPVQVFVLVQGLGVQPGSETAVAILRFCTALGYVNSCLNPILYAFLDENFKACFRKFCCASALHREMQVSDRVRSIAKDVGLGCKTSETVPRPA

Molecular target: Nociceptin receptor (Mus musculus, UniProt P35377)

CN1CC[C@]23c4c5ccc(O)c4O[C@H]2[C@@H](O)C=C[C@H]3[C@H]1C5 [CAS_23552-18-3]
Ki: 1 µM
